Experimental data taken from patent US20030041357A1, “Herbicide resistant plants” (priority 1996, published 2003).
At least one read-out could not be matched to a standard name with certainty.

Test system: pDV6 plants expressing both glyphosate resistance genes and GST
Test: Pre-em/post-em herbicide treatment of DV6 plants (Table 1)
Design: species or system Tobacco
Settings: in vivo

For `CCSC(=O)N(CC)C1CCCCC1` [Cycloate], the “% Phytotoxicity (mean, 21 DAT)” value was 0%.
